Source: PubChem BioAssay AID1487 (National Center for Advancing Translational Sciences (NCATS), 2009)
The list shows a part of the results. Shown are side measurements of this screen, not its main read-out; they come without a call. The list favours compounds with an active or inconclusive main result. Words in brackets tell the shape of the fitted curve; partial curves, single points and poor fits give uncertain potencies.

Experiment: qHTS Assay for Modulators of Lamin A Splicing
Conditions: HeLa LMNA splicing GFP/RFP minigene ratio, 48 h
Method in brief: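 S3 HeLa cells stably expressing lamin A-EGFP splicing minigene plus DsRed2, 600 cells/well, 48 h compound exposure at 37C. Laser-scanning cytometry; analysed as GFP (500-530 nm)/RFP (575-640 nm) total intensity ratio; 0.5% DMSO vehicle.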

[1] = measured here: RFP viability control channel
[2] = measured here: GFP splicing reporter channel

SMILES | AC50 [1] | AC50 [2]
CCC(=O)C1=C(c2ccc(F)cc2)N(C(=O)CC)n2cnnc2S1 | 1.12 µM [rising, partial curve] | –
CCN(CC)CCCN1C(=O)C(=O)/C(=C(/O)c2ccccc2)C1c1cc(OC)ccc1OC (stereo not drawn) | 0.0501 µM [rising, full curve, poor fit] | 0.0447 µM [rising, full curve, poor fit]
CCc1ccccc1NC(=O)CN(c1ccccc1)S(=O)(=O)c1ccsc1C(=O)OC | 0.00282 µM [falling, full curve, poor fit] | 0.00316 µM [falling, full curve, poor fit]
O=C(NCc1ccc2c(c1)OCO2)c1ccc2c(c1)N(Cc1ccccc1F)C(=O)c1ccccc1S2 | – | 0.141 µM [rising, full curve, poor fit]
O=C1NCC(COCC2CC=CCC2)O1 (stereo not drawn) | – | 14.1 µM [falling, single point]
Fc1cccc(Cl)c1Cn1nnc2c(NCc3ccncc3)ncnc21 | 0.316 µM [falling, full curve, poor fit] | –
Cc1ccc(NC2=C(Cl)C(=O)OC2OC(=O)c2ccccc2)c(C)c1 (stereo not drawn) | – | 6.31 µM [rising, single point]
CCOC(=O)c1c(-n2cccc2)sc2c1CCCC2=O | 35.5 µM [rising, single point] | –
COc1ccc2c(Cl)c(C(=O)N/N=C/c3c(C)[nH]c4ccccc34)sc2c1 | 35.5 µM [rising, single point] | –
COc1cc(C(=O)OCC(=O)Nc2c(F)cccc2F)cc(OC)c1C | 0.00447 µM [rising, full curve, poor fit] | –
C=CCOC(=O)C1=C(C)NC(SCC(=O)NC(=O)OCC)=C(C#N)C1c1cccnc1 (stereo not drawn) | 7.08 µM [rising, partial curve, poor fit] | –
CCn1c(SCc2nc3ccccc3c(=O)[nH]2)nnc1C(C)NC(=O)c1ccccc1F (stereo not drawn) | 35.5 µM [falling, single point] | –
C/C(=N\NC(=O)c1cc(C)nc2ccccc12)c1ccco1 | 35.5 µM [rising, single point] | –
O=C(CSc1n[nH]c(-c2ccc(S(=O)(=O)NC3CCCCC3)cc2)n1)N1CCCC1 | 14.1 µM [rising, partial curve] | –
COc1ccc(COc2cc(-c3cccc(OC)c3)nc3ccc(NC(=O)c4ccc(N(C)C)cc4)cc23)cc1 | 5.01 µM [rising, full curve] | –
COc1ccc(OCC(=O)O/N=C(\N)c2ccc(OC)c(OC)c2)cc1 | 22.4 µM [rising, partial curve, poor fit] | –
CC(Oc1ccccc1)C(=O)Nc1ccc(S(=O)(=O)NCC2CCCO2)cc1 (stereo not drawn) | 12.6 µM [rising, partial curve, poor fit] | –
O=C(/C=C/c1ccc2c(c1)OCO2)NCc1ccc(F)cc1 | – | 0.794 µM [rising, full curve, poor fit]
COc1ccccc1-n1c(C)c2c(OC)cccc(=O)c2c1C | – | 17.8 µM [rising, single point]
CC(=O)c1cc(F)c(N2CCN(C(=O)COc3ccccc3F)CC2)cc1C | 25.1 µM [rising, single point] | –
CCCCc1ccc(NS(=O)(=O)c2cccs2)cc1 | 12.6 µM [rising, partial curve, poor fit] | –
COc1cccc(CN2C(=O)c3ccccc3Sc3ccc(C(=O)OCc4ccco4)cc32)c1 | – | 0.794 µM [rising, full curve, poor fit]
CC1=C(C(=O)Nc2ccc([N+](=O)[O-])cc2)C(c2cccc(C(F)(F)F)c2)NC(=S)N1c1ccccc1 (stereo not drawn) | 15.8 µM [falling, single point] | 35.5 µM [falling, single point]
CCS(=O)(=O)c1nc(S(=O)(=O)c2ccc(Cl)cc2)c(N2CCc3ccccc3C2)s1 | 22.4 µM [rising, single point] | –
CC(NC(=O)c1ccc(OC2CCN(Cc3ccccn3)CC2)cc1)c1ccccc1 (stereo not drawn) | 14.1 µM [falling, single point] | 35.5 µM [falling, single point]
COc1ccc(N2C(=O)CC(Sc3ccccc3C(=O)O)C2=O)c([N+](=O)[O-])c1 (stereo not drawn) | 11.2 µM [falling, partial curve] | –
COc1cccc(CSc2nc3n(n2)C(c2cccs2)C(C(=O)Nc2ccccc2C)=C(C)N3)c1 (stereo not drawn) | 20 µM [falling, single point] | –
CCOc1cc(C(=S)N2CCOCC2)ccc1OS(=O)(=O)c1ccccc1 | 15.8 µM [rising, single point] | 12.6 µM [rising, partial curve, poor fit]

SMILES | AC50 [1] | AC50 [2]
O=C(COc1ccc(Cl)cc1)Nc1ncc([N+](=O)[O-])s1 | 17.8 µM [rising, single point] | 5.62 µM [falling, partial curve]
Cn1c(=O)oc2cc(S(=O)(=O)NCc3ccncc3)ccc21 | 6.31 µM [rising, partial curve] | 3.16 µM [rising, full curve]
O=C(Oc1ccccc1C(=O)Oc1ccccc1)c1cccnc1 | 35.5 µM [rising, partial curve] | –
CCOc1cc(CNCCSc2nnnn2C)cc(Br)c1OCc1ccc(F)cc1 | 35.5 µM [rising, single point] | 15.8 µM [rising, single point]
CCSc1nc2ccccc2n1C(=O)/C=C\c1ccc(OC)c(OC)c1 | 3.16 µM [falling, full curve] | 3.55 µM [falling, full curve]
CCSc1nnc(NC(=O)c2ccccn2)s1 | 4.47 µM [rising, full curve] | 14.1 µM [rising, single point]
O=C(Cc1ccc(F)cc1)NCC1CCCO1 (stereo not drawn) | 14.1 µM [falling, partial curve] | –
CCOc1ccc(S(=O)(=O)N(C)c2ccc(OCC(=O)Nc3nc4ccccc4s3)cc2)cc1 | 3.16 µM [rising, full curve] | 5.01 µM [rising, partial curve]
COc1cc(SC)ccc1C(=O)NCCOc1ccc(Cl)cc1 | 35.5 µM [rising, single point] | 22.4 µM [rising, single point]
Nc1sc2c(c1C(=O)c1ccccc1)CCCC2 | 35.5 µM [rising, single point] | 35.5 µM [rising, single point]
COC(=O)c1c(-c2cc(OC)c(OC)c(OC)c2)c2ccnc(OCc3ncccn3)c2c(=O)n1Cc1ccnc(C)c1 | – | 0.0708 µM [falling, full curve, poor fit]
CN1CCN(CC(=O)Nc2ccc(Oc3ccccc3)cc2)CC1 | 25.1 µM [rising, single point] | –
O=C(c1ccc(S(=O)(=O)N2CCCCC2)cc1)N1CCN(CCN2C(=O)c3cccc4cccc(c34)C2=O)CC1 | – | 3.98 µM [falling, partial curve, poor fit]
CS(=O)(=O)N(CC(=O)N1CCN(Cc2ccc3c(c2)OCO3)CC1)C1CCCCC1 | – | 0.0178 µM [rising, full curve, poor fit]
COc1ccc(S(=O)(=O)N2CCCC(C(=O)Nc3ccc(OC)c(OC)c3)C2)cc1 (stereo not drawn) | 31.6 µM [rising, single point] | 12.6 µM [rising, single point]
CCN1CCN(c2ccc(NC(=O)COc3ccccc3Cl)cc2)CC1 | 35.5 µM [rising, single point] | –
CC(C(=O)N1CCc2ccccc21)N1CCc2ccccc2C1 (stereo not drawn) | 11.2 µM [rising, partial curve, poor fit] | –
CC(=O)C1=C(C)NC(SCC(=O)c2ccc(Cl)cc2Cl)=C(C#N)C1c1ccco1 (stereo not drawn) | 25.1 µM [rising, single point] | 11.2 µM [rising, partial curve]
COc1ccnc(CSC(N)=Nc2cccc(C(F)(F)F)c2)c1 | 17.8 µM [rising, single point] | 12.6 µM [rising, single point]
Cc1ccccc1NC(=O)c1ccc2nc(Cc3ccccc3)oc2c1 | 2.24 µM [falling, partial curve] | –
Cn1c(SCc2ccc(F)cc2)nc2c([nH]c3ccccc32)c1=O | 0.355 µM [falling, full curve, poor fit] | 0.794 µM [falling, full curve, poor fit]
COc1ccccc1C(=O)Nc1c(C(=O)N(CCN(C)C)Cc2ccco2)oc2ccccc12 | 28.2 µM [falling, single point] | 22.4 µM [falling, partial curve]
Cc1ccc(Cn2c(=O)n(-c3ccccc3)c(=O)c3ccc(C(=O)NCc4ccco4)cc32)cc1 | 3.16 µM [falling, partial curve, poor fit] | –
Cc1onc(-c2c(F)cccc2Cl)c1C(=O)c1ccccc1O | 22.4 µM [falling, single point] | –
CCN1C(=O)c2cccc3c(NC(=O)c4ccc(S(=O)(=O)N5CCOCC5)cc4)ccc1c23 | 20 µM [rising, partial curve, poor fit] | –
COCCn1c(SC(C)C(=O)Nc2ncc(Cl)cc2Cl)nc2ccccc21 (stereo not drawn) | 7.08 µM [rising, partial curve] | –
CC1CCN(S(=O)(=O)c2cccc(C(=O)NCc3cccs3)c2)CC1 | 35.5 µM [rising, single point] | –

Rewritten as tab-separated lines: entries from further up.
SMILES	AC50 [1]	AC50 [2]
CCn1c(SCc2nc3ccccc3c(=O)[nH]2)nnc1C(C)NC(=O)c1ccccc1F (stereo not drawn)	35.5 µM [falling, single point]	–
CCOc1cc(CNCCSc2nnnn2C)cc(Br)c1OCc1ccc(F)cc1	35.5 µM [rising, single point]	15.8 µM [rising, single point]
COc1ccc(S(=O)(=O)N2CCCC(C(=O)Nc3ccc(OC)c(OC)c3)C2)cc1 (stereo not drawn)	31.6 µM [rising, single point]	12.6 µM [rising, single point]
CCN1C(=O)c2cccc3c(NC(=O)c4ccc(S(=O)(=O)N5CCOCC5)cc4)ccc1c23	20 µM [rising, partial curve, poor fit]	–
